Measurements taken from ChEMBL document CHEMBL4513145, “CO-ADD screening of Biotechnology Research Centre (C.R.B.t) (Algeria) compounds”.
“And” between values parts separate entries of the source, which are not always exact repeats. Identical values can stand only once. The list shows a part of the results. Entries with a potency or affinity are not part of this list.

System: Acinetobacter baumannii
Conditions: Concentration 32 ug.mL-1, ASSAY_TEST Inhibition of Bacterial Growth, detection method Absorption (OD600), MEDIA CAMHB, plate type 384well, NBS, CORNING #3640, time 18 hr

Row | Compound | Inhibition [%] | Inhibition (32 ug/mL)
1 | CC1CN(C(=O)OCc2ccccc2)OC1O (stereo unspecified) | 8.1 | –
2 | O=C(OCc1ccccc1)N1CC(Cc2ccccc2)C(O)O1 (stereo unspecified) | 13.82 | –
3 | CC1CN(S(=O)(=O)c2ccc([N+](=O)[O-])cc2)N(C(=O)OC(C)(C)C)C1O (stereo unspecified) | 1.8 | –
4 | CCCCCCCC1CN(S(=O)(=O)c2ccc(C)cc2)N(C(=O)OC(C)(C)C)C1=O (stereo unspecified) | 6.44 | –
5 | O=C(OCc1ccccc1)N1OC(O)C2CCCCC21 (stereo unspecified) | 5.83 | –
6 | CC1C(O)N(C(=O)OC(C)(C)C)N(S(=O)(=O)c2ccc([N+](=O)[O-])cc2)C1C (stereo unspecified) | -1.71 | –
7 | CC(C)(C)OC(=O)N1C(O)C2CCCC2N1S(=O)(=O)c1ccc([N+](=O)[O-])cc1 (stereo unspecified) | 1.22 | –
8 | CC(C)(C)OC(=O)N1C(O)C(Cc2ccccc2)CN1S(=O)(=O)c1ccc([N+](=O)[O-])cc1 (stereo unspecified) | – | 13.13% and 12.98% and 9.69%
9 | CC1CN(S(=O)(=O)c2ccc([N+](=O)[O-])cc2)N(C(=O)OC(C)(C)C)C1=O (stereo unspecified) | – | 12.36% and 6.82% and 9.25%
10 | CCCCCCCC1CN(S(=O)(=O)c2ccc(C)cc2)N(C(=O)OC(C)(C)C)C1O (stereo unspecified) | 10.38 | –
11 | CCCCCCCC1CN(S(=O)(=O)c2ccc(C)cc2)N(S(=O)(=O)c2ccc(C)cc2)C1O (stereo unspecified) | 7.63 | –
12 | Cc1ccc(S(=O)(=O)N2CC(C)C(=O)N2S(=O)(=O)c2ccc(C)cc2)cc1 (stereo unspecified) | – | 3.83% and 8.89%
13 | O=C1ON(C(=O)OCc2ccccc2)CC1Cc1ccccc1 (stereo unspecified) | – | 9.32% and 10.71%
14 | Cc1ccc(S(=O)(=O)N2CC(Cc3ccccc3)C(=O)N2S(=O)(=O)c2ccc(C)cc2)cc1 (stereo unspecified) | – | 8.79% and 11.99%
15 | CC(C)(C)OC(=O)N1C(=O)C(Cc2ccccc2)CN1S(=O)(=O)c1ccc([N+](=O)[O-])cc1 (stereo unspecified) | – | 13.37% and 4.76% and -0.21%
16 | CC1CN(C(=O)OCc2ccccc2)OC1=O (stereo unspecified) | – | 8.73% and 15.25% and 12.63%
